Experimental data from PubChem BioAssay AID720504 (National Center for Advancing Translational Sciences (NCATS), 2013).
Several values for one entry are separate records, joined by “and”; a condition that tells them apart may be missing. Equal values may be shown once. About 10,000 (2.8%) of roughly 360,000 compounds were called active. Inconclusive means that the source gave no clear call. Such entries were picked first, then a sample of the others. Calls follow the shape of the dose curve; as a rule, active = well fitted inhibition curve with a large enough effect; inconclusive = small, poorly fitted or top-dose-only effect; inactive = flat fitted curve, though single readings scatter. A potency beside an inconclusive call is a rough fit, not a confirmed value.
% is scaled to controls: 0 for no effect and ±100 for the full control effect; potency is read from the fitted curve at half-maximal effect.
Also: nearly all actives have a fitted effect of over 65% in size.
For max response, negative = inhibition in this document: series mostly up to about 57 µM.

Chains of the proteins cited; added tags and fusions are not shown.
UniProt P53350, whole entry, looked up: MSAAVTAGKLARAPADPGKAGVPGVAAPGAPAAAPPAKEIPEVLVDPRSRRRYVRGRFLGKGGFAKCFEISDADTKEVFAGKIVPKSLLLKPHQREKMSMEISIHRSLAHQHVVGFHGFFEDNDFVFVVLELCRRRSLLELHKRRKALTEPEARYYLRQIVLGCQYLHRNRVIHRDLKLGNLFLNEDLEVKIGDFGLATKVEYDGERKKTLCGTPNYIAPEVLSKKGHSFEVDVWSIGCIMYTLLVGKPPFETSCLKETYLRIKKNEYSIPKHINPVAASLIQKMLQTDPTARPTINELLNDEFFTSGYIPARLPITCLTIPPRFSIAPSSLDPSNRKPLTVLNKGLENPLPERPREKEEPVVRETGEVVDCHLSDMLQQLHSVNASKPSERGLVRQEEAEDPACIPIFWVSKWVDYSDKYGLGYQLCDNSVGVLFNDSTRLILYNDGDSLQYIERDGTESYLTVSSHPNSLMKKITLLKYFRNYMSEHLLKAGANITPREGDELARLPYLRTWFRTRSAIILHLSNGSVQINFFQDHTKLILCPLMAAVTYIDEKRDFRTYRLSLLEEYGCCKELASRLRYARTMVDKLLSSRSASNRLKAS

These compounds were tested against Serine/threonine-protein kinase PLK1 (Homo sapiens) (UniProt P53350) (assay: qHTS for Inhibitors of PLK1-PDB (polo-like kinase 1 - polo-box domain): Primary Screen). Conditions: Plk1 PBD binding of FITC phosphopeptide, fluorescence polarization.
For O=C1N[C@@H](Cc2ccccc2)C(=O)N2[C@H]1C[C@H]1c3ccccc3N(OOSc3ccccc3)[C@H]12, the Potency was inconclusive: 67 µM [inhibitor, partial curve].
CN(C)[C@@H]1C(=O)C(C(N)=O)=C(O)[C@@]2(O)C(=O)C3=C(O)c4c(O)cccc4[C@@](C)(O)[C@H]3[C@H](O)[C@@H]12 was tested, and the Potency was active: 4.74 µM and active: 5.32 µM.
With C/C(=N\NC(=S)Nc1ccccc1)c1c(O)n(C)c(=O)n(C)c1=O the Potency was active: 21.2 µM.
In the case of CN(C)P(=NC(=S)c1cccn1C)(N(C)C)N(C)C, the Potency is reported as inconclusive: 29.9 µM [inhibitor, partial curve].
With COC(=O)C1=C(c2ccccc2)C[C@@H]2CC[C@H]1N2C(=O)NCCNC(C)=O the max response, negative = inhibition was inactive: -17.9%.
In the case of C=CCN1C(=O)NC(=O)/C(=C/c2c(CCN(C)C(=O)c3ccccc3)cc3c(c2OC)OCO3)C1=O, the Potency is reported as active: 23.8 µM.
For CCOc1ccc(N)cc1, the max response, negative = inhibition was inactive: -1.1%.
On1ccccc1=S was tested, and the Potency was inconclusive: 5.97 µM [inhibitor, partial curve].
With CCOc1ccc(N2C(=O)/C(=C/c3ccc(C)o3)C(=O)NC2=S)cc1 the Potency was active: 4.74 µM.
In the case of CCc1nnc(NC(=O)CCc2nc(C3=CCN(C)CC3)no2)s1, the max response, negative = inhibition is reported as inactive: -9.76%.
For C=CCn1c(=O)/c(=C\c2ccccn2)s/c1=C(/C#N)C(=O)NCC1CCCO1 (stereo not given), the Potency was inconclusive: 23.8 µM [inhibitor, partial curve].
In the case of COCc1cc(C)c(C#N)c(=S)[nH]1, the Potency is reported as active: 26.7 µM.
O=C(CSC1c2ccccc2-c2ccccc21)N/N=C/c1ccccc1C(=O)O was tested, and the Potency was inconclusive: 29.9 µM [inhibitor, single point].
For CCOC(=O)[C@]12Cc3cc(C)ccc3[C@H]1N(C1CCCCC1)C(=O)c1cc(OC)ccc12, the Potency was active: 2.38 µM.
In the case of COc1cccc(N2C(=O)NC(=O)/C(=C\c3ccc([N+](=O)[O-])s3)C2=O)c1, the Potency is reported as active: 5.32 µM.
For Nc1cc2nc3ccccc3nc2cc1N, the Potency was active: 6.7 µM.
For CCN(CC)C(=O)c1ccc(NC(=O)c2ccc(N3CCCC3=O)cc2)cc1, the max response, negative = inhibition was inactive: -6.34%.
In the case of CCC(C)N1C(=O)/C(=C\c2ccc(N3CCCCCC3)cc2)C(=O)NC1=S (stereo not given), the Potency is reported as inconclusive: 0.474 µM [inhibitor, full curve].
COC(=O)Cn1cc(/C=C2\C(=O)NC(=O)N(c3ccc(OC)cc3)C2=O)c2ccccc21 was tested, and the Potency was inconclusive: 1.06 µM [inhibitor, full curve].
O=C1NC(=O)C(=Cc2ccc(OCCOc3ccc([N+](=O)[O-])cc3)cc2)C(=O)N1 was tested, and the Potency was active: 2.67 µM.
